Test: general procedure: Fmoc solid-phase peptide synthesis; Fmoc-Thr-(tBu)-Wang resin (Advanced Chem Tech), about 0.32 mmol/g; DIC/Oxyma
Conditions: whole synthesis, 220 nm, scale 0.125 mmol, acetate

HSQGTFTSDYSKYLD(Aib)RRAQQFVK(4-Pal)LLST-OH
final HPLC purity: >98%

Reference: US20220125885A1 (Eli Lilly and Company, priority 2019, published 2022)
